Test results reported in patent US20240344028A1, “Serum-free media for producing adipocytes for animal consumption” (Mosa Meat B.V., priority 2021, published 2024).
Structures can show the parent of a compound that is named as a salt. At least one structure is not confirmed: it was looked up by name or label, or the drawing left a doubt.

Tested on: Adipogenic progenitor cells
Test: 2D adipogenic differentiation with DMAD components removed or at changed concentration
Format: cell-based, bovine
Conditions: single component removed from DMAD
Procedure: At 90% confluence, proliferated MSCs were trypsinized and seeded in a 96-well collagen coated cell culture plate at 30,000 cells/cm^2 in SF-PM. After 24 hours, adipogenesis was induced by changing SF-PM to DMAD (the serum-free differentiation medium as depicted in Example 1), which was maintained on the cells for a period of 12 days with media changes every 3-4 days. As a control differentiation medium (ctrl), DMEM/F12 with 3% FBS was supplemented with 4 conventional adipogenic inducers (IBMX (Sigma Aldrich-15879; 0.5 mM), dexamethasone (Sigma Aldrich-D4902; 10 μM), rosiglitazone (Sigma Aldrich-R2408; 5 μM) and insulin (Peprotech-10-365; 10 μM)). All 4 inducers were used for the first 3 days of culture and only insulin and rosiglitazone were used for the remaining 9 days.
Cells were fixed on days 6 and 12 with 4% PFA for 20 minutes at room temperature and washed twice with PBS. Cells were then stained with Hoechst (ThermoFisher 493/503, 1:2000) and BODIPY (Sigma Aldrich 345880, 1:1000) in PBS for 30 minutes. Adipogenic differentiation was quantified using the ImageXPress Pico High Content Analyser (HCA; Molecular devices). The parameters measured were total area of lipid, lipid droplet average area and percentage of positive cells. […]

O=C1O[C@H]([C@@H](O)CO)C(O)=C1O [vitamin C, L-Ascorbic acid 2-phosphate sesquimagnesium salt hydrate]
effect of removing the component from DMAD on percentage of positive cells and total lipid area: significantly decreased differentiation
